Data taken from patent publication US9545120B2, “Method of lowering glycemic index of foods” (BASF SE, priority 2002, dated 2017).
Some entries share one result that the patent states for a list of compounds.

Target: T1, Alpha-amylase from porcine pancreas (Sus scrofa, UniProt P00690)
T1 construct: purchased Sigma; host or cells: porcine pancreas
T1 sequence (P00690 16-511): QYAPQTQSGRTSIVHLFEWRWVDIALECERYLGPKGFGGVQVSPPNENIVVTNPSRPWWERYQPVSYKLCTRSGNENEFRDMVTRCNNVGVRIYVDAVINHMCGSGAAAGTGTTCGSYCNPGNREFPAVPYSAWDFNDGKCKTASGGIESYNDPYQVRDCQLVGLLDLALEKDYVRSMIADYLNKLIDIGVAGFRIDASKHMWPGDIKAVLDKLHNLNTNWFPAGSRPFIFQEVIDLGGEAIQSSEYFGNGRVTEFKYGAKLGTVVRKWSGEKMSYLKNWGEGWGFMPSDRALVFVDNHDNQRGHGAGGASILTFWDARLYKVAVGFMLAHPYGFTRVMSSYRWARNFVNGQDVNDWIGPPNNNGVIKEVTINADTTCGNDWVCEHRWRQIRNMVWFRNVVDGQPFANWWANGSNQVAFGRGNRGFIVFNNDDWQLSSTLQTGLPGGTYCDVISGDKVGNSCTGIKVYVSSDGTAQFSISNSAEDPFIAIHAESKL
Experiment: Alpha-amylase assay
Format: biochemical
Experimental: Alpha-amylase from porcine pancreas, alpha-glucosidase, glucoamylase and substrate (p-nitrophenyl-alpha-maltopentaoside) were purchased from Sigma. In the reaction, alpha-amylase (endo-type enzyme) hydrolysed the substrate into shorter chain glucosides and the auxiliary enzymes (exo-type enzymes) released the chromophore (p-nitrophenol) from the amylase-hydrolyzed malto-polysaccharides. For the assay, alpha-amylase (7.5 U/ml) was added to a substrate solution containing 1 mM p-nitrophenyl-alpha-maltopentaoside, 15 U/ml of alpha-glucosidase and 25 U/ml of glucoamylase in 50 mM HEPES buffer (pH 7.3) containing 3 mM CaCl2 and 40 mM NaCl. The reaction was carried out for 15 min at 37° C. in the presence vs. absence of flavonoids at concentrations ranged from 11.7 to 750 μg/ml. At the end of the incubation, 0.2 M borate, pH 9.8 was added to inactivate the enzymes and liberated p-nitrophenol was measured spectrophotometrically at 405 nm. The relative activity of alpha-amylase was calculated by subtracting reaction blanks containing the substrate, the two axillary enzymes and flavonoids at the same concentrations. The inhibitory activity was expressed as 100 minus relative absorbance difference between tested samples and controls.

Row | Structure (SMILES) | concentration sufficient to produce complete inhibition of alpha-amylase
1 | O=c1cc(-c2ccc(O)c(O)c2)oc2cc(O)cc(O)c12 [Luteolin, luteolin] | lower than 1.6 mM
2 | O=c1cc(-c2ccc(O)cc2)oc2cc(O)cc(O)c12 [Apigenin, apigenin] | lower than 1.6 mM
